# Reference: doi:10.1101/2021.03.11.434917
# Amino acid sequences for entries named in this document (tags omitted).
# UniProt Q60575: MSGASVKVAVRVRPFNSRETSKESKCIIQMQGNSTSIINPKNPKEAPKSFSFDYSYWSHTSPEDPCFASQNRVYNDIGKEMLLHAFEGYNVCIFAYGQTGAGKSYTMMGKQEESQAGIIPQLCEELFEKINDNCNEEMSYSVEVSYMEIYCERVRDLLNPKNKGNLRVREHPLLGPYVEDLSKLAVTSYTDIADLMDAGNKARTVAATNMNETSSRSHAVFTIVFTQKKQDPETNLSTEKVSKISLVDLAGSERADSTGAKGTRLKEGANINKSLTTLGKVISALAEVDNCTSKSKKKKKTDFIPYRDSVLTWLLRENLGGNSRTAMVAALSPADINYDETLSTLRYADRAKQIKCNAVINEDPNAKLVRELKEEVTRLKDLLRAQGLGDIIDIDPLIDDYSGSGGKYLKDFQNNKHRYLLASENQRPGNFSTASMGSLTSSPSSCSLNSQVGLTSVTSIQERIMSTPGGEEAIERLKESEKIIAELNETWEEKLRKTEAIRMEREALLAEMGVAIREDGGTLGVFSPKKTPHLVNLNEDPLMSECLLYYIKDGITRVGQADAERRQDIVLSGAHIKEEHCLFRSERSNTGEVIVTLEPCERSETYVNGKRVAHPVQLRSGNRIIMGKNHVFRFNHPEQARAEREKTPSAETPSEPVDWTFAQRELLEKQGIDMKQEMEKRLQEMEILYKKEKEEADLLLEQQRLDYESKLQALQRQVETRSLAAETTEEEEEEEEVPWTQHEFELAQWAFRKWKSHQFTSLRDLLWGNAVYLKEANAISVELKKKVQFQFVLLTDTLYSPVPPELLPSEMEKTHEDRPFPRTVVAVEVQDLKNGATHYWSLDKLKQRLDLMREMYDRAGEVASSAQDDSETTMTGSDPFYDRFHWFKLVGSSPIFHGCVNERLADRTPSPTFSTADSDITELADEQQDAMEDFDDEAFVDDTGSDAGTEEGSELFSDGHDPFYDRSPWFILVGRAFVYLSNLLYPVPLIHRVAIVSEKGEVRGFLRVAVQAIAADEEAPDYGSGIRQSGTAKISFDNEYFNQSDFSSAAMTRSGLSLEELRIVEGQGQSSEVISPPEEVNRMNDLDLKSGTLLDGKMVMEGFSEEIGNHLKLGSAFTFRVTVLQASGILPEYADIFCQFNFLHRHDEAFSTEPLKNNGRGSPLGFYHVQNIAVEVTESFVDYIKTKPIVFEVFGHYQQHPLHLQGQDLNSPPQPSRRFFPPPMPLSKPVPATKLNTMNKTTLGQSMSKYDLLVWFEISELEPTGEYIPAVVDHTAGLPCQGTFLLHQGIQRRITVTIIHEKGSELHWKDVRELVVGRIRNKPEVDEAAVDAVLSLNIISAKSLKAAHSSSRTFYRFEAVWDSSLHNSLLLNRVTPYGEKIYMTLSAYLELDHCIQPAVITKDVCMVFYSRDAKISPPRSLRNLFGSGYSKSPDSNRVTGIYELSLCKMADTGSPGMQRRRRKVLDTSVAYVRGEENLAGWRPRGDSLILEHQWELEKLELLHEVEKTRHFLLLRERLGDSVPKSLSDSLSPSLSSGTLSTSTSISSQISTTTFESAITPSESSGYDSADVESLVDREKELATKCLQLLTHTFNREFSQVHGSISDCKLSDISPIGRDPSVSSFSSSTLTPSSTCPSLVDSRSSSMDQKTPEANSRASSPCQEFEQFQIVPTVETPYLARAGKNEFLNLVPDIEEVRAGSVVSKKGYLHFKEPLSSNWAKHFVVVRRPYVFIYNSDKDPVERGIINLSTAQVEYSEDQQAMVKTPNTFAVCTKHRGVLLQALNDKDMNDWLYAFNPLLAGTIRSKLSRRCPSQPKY
# UniProt Q61768: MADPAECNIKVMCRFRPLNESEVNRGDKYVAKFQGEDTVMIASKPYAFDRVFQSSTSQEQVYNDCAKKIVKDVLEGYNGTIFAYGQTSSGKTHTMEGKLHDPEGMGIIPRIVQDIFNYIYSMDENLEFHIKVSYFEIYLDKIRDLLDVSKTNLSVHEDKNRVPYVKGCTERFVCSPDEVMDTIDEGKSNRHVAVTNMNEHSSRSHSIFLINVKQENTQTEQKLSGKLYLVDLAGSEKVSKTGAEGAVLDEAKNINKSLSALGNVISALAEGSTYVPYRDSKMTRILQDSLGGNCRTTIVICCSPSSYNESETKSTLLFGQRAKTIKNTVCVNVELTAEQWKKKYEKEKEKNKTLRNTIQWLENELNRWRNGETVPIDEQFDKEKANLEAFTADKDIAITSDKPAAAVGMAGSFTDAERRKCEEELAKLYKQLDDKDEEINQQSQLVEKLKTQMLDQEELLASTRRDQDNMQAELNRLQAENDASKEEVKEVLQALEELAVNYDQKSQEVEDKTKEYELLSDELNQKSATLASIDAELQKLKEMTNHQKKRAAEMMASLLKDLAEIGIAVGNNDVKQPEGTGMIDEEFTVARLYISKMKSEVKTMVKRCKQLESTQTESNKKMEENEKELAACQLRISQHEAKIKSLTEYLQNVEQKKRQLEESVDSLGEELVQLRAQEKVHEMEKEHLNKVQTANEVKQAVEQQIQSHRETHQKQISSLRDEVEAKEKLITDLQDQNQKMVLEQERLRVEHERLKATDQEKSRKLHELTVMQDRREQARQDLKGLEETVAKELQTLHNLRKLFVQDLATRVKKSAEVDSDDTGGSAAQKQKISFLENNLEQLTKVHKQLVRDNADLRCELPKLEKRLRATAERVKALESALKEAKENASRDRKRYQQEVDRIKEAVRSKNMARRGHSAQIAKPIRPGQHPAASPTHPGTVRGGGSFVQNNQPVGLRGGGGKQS
# No constants are given. Whether binding was seen depends on the method and setting. In cells and extracts the contact can be indirect. Some binding calls cover weakened binding; strength is not graded here. Where a sequence is shown, tags or fusion partners need not be part of it.
# Biological target: T1, GST-SKIP (1-282) (UniProt Q8IWE5)
# T1 sequence: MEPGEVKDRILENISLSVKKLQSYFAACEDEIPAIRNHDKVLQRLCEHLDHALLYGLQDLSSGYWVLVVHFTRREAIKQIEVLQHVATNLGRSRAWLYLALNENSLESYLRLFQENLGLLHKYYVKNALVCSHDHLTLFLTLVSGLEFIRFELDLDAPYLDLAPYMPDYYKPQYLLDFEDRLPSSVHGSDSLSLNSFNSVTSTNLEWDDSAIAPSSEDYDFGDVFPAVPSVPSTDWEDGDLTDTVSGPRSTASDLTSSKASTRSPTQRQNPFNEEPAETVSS
# Test: pull-down
row,Substance,binding
1,"KIF1B (endogenous, melanosome lysate) (from UniProt Q60575 1-1816)",binds
2,"KIF5B (endogenous, melanosome lysate) (from UniProt Q61768 1-963)",binds
